Results on 42 sequences are retold here after paper PMC7819943, “Rice protein-binding microarrays: a tool to detect cis-acting elements near promoter regions in rice”.

By UniProt entry, the sequences of proteins in these tests, tags left out.
UniProt Q0JBA9, entry or part of it: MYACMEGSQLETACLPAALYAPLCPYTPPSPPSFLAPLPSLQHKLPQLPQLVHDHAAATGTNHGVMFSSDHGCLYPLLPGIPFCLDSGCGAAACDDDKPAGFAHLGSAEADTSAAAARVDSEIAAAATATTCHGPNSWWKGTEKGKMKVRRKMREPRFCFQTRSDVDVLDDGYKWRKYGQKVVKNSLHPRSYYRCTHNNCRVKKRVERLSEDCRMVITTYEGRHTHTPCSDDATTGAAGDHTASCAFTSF

Some of the results follow.

In the test the target is OsWRKY34 (Oryza sativa, UniProt Q0JBA9 1-250). The experiment in a line: protein-binding microarray (RPBM); PBS, 2% BSA, 51.3 ng/ul salmon testes DNA, 50 uM zinc acetate, 200 nM TF, 25 C, 1 h; high values mean tight binding. Conditions: protein: recombinant; tags: N-terminal polyhistidine and DsRed monomer fusion (pET32a); label: CyDye5-dUTP incorporated in the synthesized complementary strand; 3' TTTTT single-stranded linker to array surface; dsDNA, one strand shown. The method in brief:
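The binding signal for each feature is its fluorescence intensity in arbitrary units. An Axon 4000B scanner was used to read a custom Agilent array that had been made double-stranded with Cy5-dUTP primer extension, blocked with 2% BSA, incubated at 25 °C for 1 h with 200 nM protein in PBS, 2% BSA, salmon testes DNA and 50 µM zinc acetate, and washed. The protein was an N-terminal polyhistidine–DsRed transcription factor fusion from E. coli BL21-CodonPlus, purified on Ni–NTA.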
As to “AGGTTCCTAGTGTTGATCATCTACTGTTTGCAGCTGGGTTCGGAGTCACCTAGTGCAG”, the binding signal is 11100 fluorescence intensity (a.u.).

As to “GATTATTTTCTTCATACTCAGCATTCTTTTTTTTCTTCTTCGGAGTCACCTAGTGCAG”, the binding signal was 10600 fluorescence intensity (a.u.).

For “CGTTTTTGATCGCTGCCATCCCTACACCCTCATGCTGTTCCGGAGTCACCTAGTGCAG”, the binding signal is 10000 fluorescence intensity (a.u.).

As to “GTACGTTGTTTGCCCATCCAAATCTATCCCAGCCTAAATCCGGAGTCACCTAGTGCAG”, the binding signal was 10700 fluorescence intensity (a.u.).

“CTCGTTTGATCGTCTCACAATCACAATCTCTAAACATTGTCGGAGTCACCTAGTGCAG”: the binding signal is 8630 fluorescence intensity (a.u.).

Consider “TCCATCCCCATCCCCATTCCCCACCGCCGAACTCGGCCCGCGGAGTCACCTAGTGCAG”, for which the binding signal is 10500 fluorescence intensity (a.u.).

As to “GTGGTGGTGTGTGCTCCTCGTGGCTCGCCGGATCACGTGGCGGAGTCACCTAGTGCAG”, the binding signal was 8030 fluorescence intensity (a.u.).

Take “AGTTCGTTGTTTTTTTTATTATTCTTGGAATCTCCTCTTCCGGAGTCACCTAGTGCAG”: the binding signal is 8440 fluorescence intensity (a.u.).

On to “CCTTGGATTTTAAAACTCCTTCCAGCTATTTTTCCGTTTTCGGAGTCACCTAGTGCAG”, for which the binding signal is 8290 fluorescence intensity (a.u.).

As to “ATTCTTAAACCCGCCAATGGTTTTCCACGCGCCCACGTTACGGAGTCACCTAGTGCAG”, the binding signal is 8170 fluorescence intensity (a.u.).

“ACGTATATTCACAGTTAAATTTGTTATTTTTATTATAATTCGGAGTCACCTAGTGCAG”: the binding signal was 8650 fluorescence intensity (a.u.).

Regarding “TACAAATCAATGTCGCATTTGGTGTTCGACTGTTCGTTTCCGGAGTCACCTAGTGCAG”, the binding signal was 8420 fluorescence intensity (a.u.).

“GATCCGCCTCGGCCGCCGCTCGATCCGCACCCGTACCCGCCGGAGTCACCTAGTGCAG”: the binding signal was 8180 fluorescence intensity (a.u.).

On to “CATGCTCTTTAGTTTGTACTGTGTTCTGCGTTCTTATGTACGGAGTCACCTAGTGCAG”, for which the binding signal is 12700 fluorescence intensity (a.u.).

On to “ACGTCGTTATCTTTTTTTAAACATGTTTAACCATTCGTCTCGGAGTCACCTAGTGCAG”, for which the binding signal was 8850 fluorescence intensity (a.u.).

As for “TTGTTGAGATGTAAGTTAAGTGCTTTTGTATTTTTTTTGCCGGAGTCACCTAGTGCAG”, the binding signal is 8880 fluorescence intensity (a.u.).

Turning to “TCGCCGAAATCCTAGCCGTCACTGTTCACCCTTCCTCGCTCGGAGTCACCTAGTGCAG”, the binding signal was 12100 fluorescence intensity (a.u.).

Regarding “CTTGCTATTGTACCTGCTCTAATATGTAGCCATCTTTTCTCGGAGTCACCTAGTGCAG”, the binding signal was 9280 fluorescence intensity (a.u.).

For “TCACCAACGGCGCCACACATTCCGTCTTGTACTACAAGATCGGAGTCACCTAGTGCAG”, the binding signal was 11600 fluorescence intensity (a.u.).

With “TTGGGTTTCTTGGTTGCTCGAGATCTCTCTCTCTGCAATGCGGAGTCACCTAGTGCAG”, the binding signal was 11200 fluorescence intensity (a.u.).

“TCTCTATCGATTCCAATGGTCTGTTGCTGAAAAGGACAATCGGAGTCACCTAGTGCAG”: the binding signal is 12900 fluorescence intensity (a.u.).

In the case of “ACAATGATAATTCAGCTCGTTGCATGATCTACCTGACATTCGGAGTCACCTAGTGCAG”, the binding signal was 9080 fluorescence intensity (a.u.).

For “ACCCCAAGTACATCATTAGTATACATCATATTCCATCTTCCGGAGTCACCTAGTGCAG”, the binding signal is 9680 fluorescence intensity (a.u.).

Take “ACATGTGCATGTATTAATTGTGTTTTAGCGTTTCAGATCGCGGAGTCACCTAGTGCAG”: the binding signal is 8230 fluorescence intensity (a.u.).

For the sequence “AGGGAGGAGTACATCTAGTAGTATAGGGGAGAGGGTGGGCCGGAGTCACCTAGTGCAG”, the binding signal is 11500 fluorescence intensity (a.u.).

With “TCTTTTACACTTCATTTATTTTTTCATGCACCAAGGCTTACGGAGTCACCTAGTGCAG”, the binding signal was 9810 fluorescence intensity (a.u.).

With “ATCATCTCGTTTTGTGTGAAACACTTCATCTTCATCTTCACGGAGTCACCTAGTGCAG”, the binding signal is 11100 fluorescence intensity (a.u.).

Take “TCTTTTCTGAACCTTGATCTTTTCCTAAGCCTATCTTTCTCGGAGTCACCTAGTGCAG”: the binding signal was 8920 fluorescence intensity (a.u.).

Take “GAGTTGAGGATGGGTAAGAATAATAACCGGTATAAAGTGACGGAGTCACCTAGTGCAG”: the binding signal is 8110 fluorescence intensity (a.u.).

Regarding “GACTTAACCAAACAGTTTTCCGATCTTGCATTTTTTTCGTCGGAGTCACCTAGTGCAG”, the binding signal is 12800 fluorescence intensity (a.u.).

For the sequence “CCTCTCTCAGCTCAACTGCCTCCTCCTCTCTCTCTCTCCTCGGAGTCACCTAGTGCAG”, the binding signal is 10300 fluorescence intensity (a.u.).

Turning to “GTCTCCGCCACCCGCCACCCGGGGAGCTCTGCCTCCGCCTCGGAGTCACCTAGTGCAG”, the binding signal was 8620 fluorescence intensity (a.u.).

For “GGACATTGTTTCCTTCTCTTCTCTTATTTATTCGTTTGCCCGGAGTCACCTAGTGCAG”, the binding signal is 10200 fluorescence intensity (a.u.).

Take “GGGGCGTTGGGTCTTCTGTTCCCTAGAAGTATGGATTTCCCGGAGTCACCTAGTGCAG”: the binding signal is 11400 fluorescence intensity (a.u.).

Take “GAACGGGCCGGTCGGGGAACGGGCGGGCGGGTATAAAGGCCGGAGTCACCTAGTGCAG”: the binding signal was 9450 fluorescence intensity (a.u.).

Consider “TTTTGGTATTTTCCTCGTATTGCAAGCCACGGGTACCAAACGGAGTCACCTAGTGCAG”, for which the binding signal is 8460 fluorescence intensity (a.u.).

Turning to “TTACTGATGTTATTTCTATATTTTACCACCTTTCACGATACGGAGTCACCTAGTGCAG”, the binding signal is 8110 fluorescence intensity (a.u.).

Consider “CCTCACTGATCTGCTCCGCTTCGCCTCCGGGACTCCATCCCGGAGTCACCTAGTGCAG”, for which the binding signal was 12200 fluorescence intensity (a.u.).

Consider “ACACAAACCTCCTATCCCTCTAGCCATTAAACTATCCGTTCGGAGTCACCTAGTGCAG”, for which the binding signal is 9420 fluorescence intensity (a.u.).

Consider “GTCGTTTTGCACAAAGTTCCAGACCTTCCTGTCCGTTTGTCGGAGTCACCTAGTGCAG”, for which the binding signal was 8060 fluorescence intensity (a.u.).

On to “TGATAGAGTTGTTAGATATGTGCATCCATTTAGTTTCTTGCGGAGTCACCTAGTGCAG”, for which the binding signal was 8550 fluorescence intensity (a.u.).

For the sequence “ATTGCCTGCCTAGCTTTCCTCCGATCCCAGTAGTGGTTCACGGAGTCACCTAGTGCAG”, the binding signal was 8680 fluorescence intensity (a.u.).
